Experimental data: PubChem BioAssay AID1259308 (NCATS, 2017)
Here is one part, drawn at random, of about 59,000 reagents tested. Of all reagents, about 1,510 (2.6%) were called active. 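Calls use total luciferase alone and ignore viability, so some active siRNAs may act by altering cell number.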 A number with no mark means an inactive call. Reagents against one gene are numbered here. Not all columns of the deposit are shown.

- Test: 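Candidate targets for better recombinant protein yield in mammalian cells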 (primary screen)
- System: human HEK293 embryonic kidney cells stably expressing firefly luciferase (HEK-CMV-Luc2-Hygro)
- Knock-down reagent: single siRNA against human genes, 0.8 pmol siRNA per well
- Duration: 72 h
- Read-out: 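Luciferase light (ONE-Glo) measured on one replicate plate set and viability (CellTiter-Glo) on the other, scaled to a negative control siRNA, with robust z-scores and luciferase per cell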
- Direction: total luciferase, z-score: higher = more reporter protein produced
- Hit rule: 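Active when the median/MAD z-score for overall luciferase is greater than 3; a gene was taken forward for validation with new siRNAs if at least two of its three siRNAs passed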
- Calls: active = raised luciferase; inactive = no rise

total luciferase, z-score, by target and reagent
SIRT3 (GeneID 23410): #1 -0.223; #2 -0.331; #3 0.27
OR6B1 (GeneID 135946): #1 0.124; #2 0.0313; #3 0.693
ZNG1E (GeneID 220869): #1 3.54 (active); #2 -0.801; #3 -0.487
ZNF471 (GeneID 57573): #1 -0.317; #2 -1.17; #3 0.98
SMAD5 (GeneID 4090): #1 -1.99; #2 0.0394; #3 -0.561
MYPOP (GeneID 339344): #1 0.229; #2 -0.176; #3 -1.43
BFSP1 (GeneID 631): #1 -0.268; #2 0.374; #3 -0.291
MS4A12 (GeneID 54860): #1 0.00719; #2 -0.45; #3 0.832
ABTB2 (GeneID 25841): #1 -0.733; #2 0.0743; #3 0.0454
KCTD20 (GeneID 222658): #1 0.253; #2 0.162; #3 -1.51
C7orf57 (GeneID 136288): #1 -0.0665; #2 -0.362; #3 3 (active)
CGNL1 (GeneID 84952): #1 -0.873; #2 -0.536; #3 -0.961
TKTL1 (GeneID 8277): #1 -0.461; #2 -0.707; #3 -1.73

No new results follow: 3 of the entries above.
total luciferase, z-score, by target and reagent
SIRT3 (GeneID 23410): #2 -0.331; #3 0.27
OR6B1 (GeneID 135946): #1 0.124
